# Data published in PubChem BioAssay AID1347076 (National Center for Advancing Translational Sciences (NCATS), 2019).
# Screen size: about 400,000 compounds; about 13,000 (3.2%) were called active. This list was built around the results that the source calls inconclusive (neither active nor inactive); the mix of calls is not that of the screen. Calls come from the whole dose curve; as a rule, active = well fitted cell-killing curve with a large enough effect; inconclusive = small, poorly fitted or top-dose-only effect, or effect the other way; inactive = flat fitted curve, though single readings scatter. Potencies of inconclusive entries are doubtful fits and often do not repeat.
# Experiment: qHTS assay for MDR1-selective chemotherapeutics: Primary screen using the drug-selected MDR subline cells KB-V1; note: nearly all actives have a fitted effect of over 60% in size
# Settings: KB-V1 MDR cells viability, CellTiter-Glo, 72 h; activity change, negative = cytotoxicity: at 46.1 µM (top of the series)
# Method in brief: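 In this primary screen, KB-V1 cells overexpressing P-gp are incubated with library compounds (lowest to highest concentration) for 72 h at 37 degrees C before a luminescent ATP viability read.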
# % is set by controls: 0 for no effect and ±100 for the full control effect; potency is the fitted concentration of half-maximal effect.
Compound,Potency,"activity change, negative = cytotoxicity"
Cc1ccccc1Oc1nc2c(C)cccn2c(=O)c1/C=C(\C#N)C(=O)Nc1c(C)n(C)n(-c2ccccc2)c1=O,"inconclusive: 9.2 µM [cytotoxic, partial curve, poor fit]",–
N/C(=N\OC(=O)CCN1C(=O)c2ccccc2C1=O)c1ccccn1,"inconclusive: 0.184 µM [rising, full curve]",–
c1ccc(CN2CCC(Nc3nc(-c4cccs4)nc4ccccc34)CC2)cc1,"inconclusive: 10.3 µM [cytotoxic, partial curve, poor fit]",–
CC1=C(C#N)C(NC(=O)c2ccccc2)(C(F)(F)F)C(=O)N1 (centres undefined),–,inactive: 10%
O=C(COC(=O)c1ccccc1)NCc1cccs1,"inconclusive: 20.6 µM [rising, single point]",–
CN(C)CCOC(=O)/C(=C/c1cn(C)c2ccccc12)NC(=O)c1ccccc1,–,inactive: -8.7%
Cc1ccc(NC(=S)NC(NC(=O)N(C)C)C(Cl)(Cl)Cl)cc1 (centres undefined),"inconclusive: 16.4 µM [cytotoxic, partial curve]",–
Nc1nc(Nc2ccccc2)sc1C(=O)c1ccccc1,"inconclusive: 29.1 µM [cytotoxic, single point]",–
Cc1ccc(NC(=O)c2ccc3c(O)c(S(=O)(=O)c4ccc(Cl)cc4)c(=O)[nH]c3c2)cc1,–,inactive: 6.36%
CCCCNC(=O)CCc1c(C)nc2nc(-c3cc(OC)cc(OC)c3)nn2c1C,–,inactive: -21.9%
CC(C)(C)NC(=O)NC(=O)CN1CCN(c2ncc(C(F)(F)F)cc2Cl)CC1,"inconclusive: 29.1 µM [cytotoxic, single point]",–
Cc1cccc(OCCSc2cc(C)nc(N)n2)c1,"inconclusive: 25.9 µM [cytotoxic, single point]",–
O=[N+]([O-])c1ccc(NN=Cc2cccc([N+](=O)[O-])c2)cc1,–,inactive: 13.2%
COc1ccc(CC(=O)Nc2nc(OCC(F)(F)F)cnc2-c2ccc(Cl)cc2Cl)cc1,"inconclusive: 9.2 µM [cytotoxic, partial curve]",–
CCOC(=O)Cc1csc(NS(=O)(=O)c2ccc(OC)cc2)n1,"inconclusive: 29.1 µM [rising, single point]",–
Cc1ccc(S(=O)(=O)c2nc(-c3cccs3)oc2SCc2ccc(F)cc2)cc1,–,inactive: -2.57%
O=C1CC(N2CCCCCC2)C(=O)N1c1ccc(F)cc1 (centres undefined),"inconclusive: 29.1 µM [rising, partial curve, poor fit]",–
CCOC(=O)C1/C(=N\O)CC(C)(O)C(C(=O)OCC)C1c1ccc(OC)c(OC)c1 (centres undefined),"inconclusive: 0.58 µM [rising, partial curve, poor fit]",–
CCOC(=O)[C@]12CCC=C1N(Cc1cccc3ccccc13)C(=O)[C@H](CC(=O)NCc1cccc3ccccc13)C2,"inconclusive: 18.4 µM [cytotoxic, partial curve]",–
COCCn1c(SCC(=O)N2CCCc3ccccc32)nnc1-c1ccco1,"inconclusive: 14.6 µM [cytotoxic, partial curve, poor fit]",–
COC(=O)c1ccccc1NC(=O)C1CC=CCC1C(=O)O (centres undefined),–,inactive: 17.1%
COc1ccc(CNC(=O)CC(C)CC2=NS(=O)(=O)c3ccccc3N2)cc1 (centres undefined),"inconclusive: 8.2 µM [rising, partial curve]",–
COc1ccc(NC(=O)CCC(=O)NCCO)cc1,"inconclusive: 29.1 µM [rising, single point]",–

# An excerpt from above in order of count of non-hydrogen atoms, largest number first:
Compound,Potency,"activity change, negative = cytotoxicity"
CN(C)CCOC(=O)/C(=C/c1cn(C)c2ccccc12)NC(=O)c1ccccc1,–,inactive: -8.7%
N/C(=N\OC(=O)CCN1C(=O)c2ccccc2C1=O)c1ccccn1,"inconclusive: 0.184 µM [rising, full curve]",–
Cc1ccc(NC(=S)NC(NC(=O)N(C)C)C(Cl)(Cl)Cl)cc1 (centres undefined),"inconclusive: 16.4 µM [cytotoxic, partial curve]",–

# Remaining list, next part.

Compound,Potency,"activity change, negative = cytotoxicity"
CCCc1cc(=O)oc2c3c(cc(OCC(=O)NCCN4CCOCC4)c12)OC(C)(C)CC3,"inconclusive: 25.9 µM [cytotoxic, partial curve, poor fit]",–
CCOC(=O)c1ccc(Nc2c(-c3ccc(OC)cc3)nc3nc[nH]n23)cc1,–,inactive: 1.38%
CCOc1ccc(C(=O)Nc2nnc(SCC(=O)NCC3CCCO3)s2)cc1 (centres undefined),–,inactive: 2.39%
O=C(c1ccc(Sc2cccc(Cl)c2)c([N+](=O)[O-])c1)N1CCN(c2ccccn2)CC1,"inconclusive: 23.1 µM [cytotoxic, single point]",–
CCCCCCCCN1C(=O)[C@H](CC(=O)N2CCCCC2)C[C@@]2(C(=O)OC)CC(C)(C)CC=C12,"inconclusive: 9.2 µM [cytotoxic, partial curve]",–
CCOC(=O)N1CCN(S(=O)(=O)N2CCCC(C(=O)NCCCN3CCCCC3CC)C2)CC1 (centres undefined),"inconclusive: 13 µM [rising, partial curve, poor fit]",–
Cc1cc(C)n2c(Nc3c(C)cccc3C)c(CCc3ccccc3)nc2n1,"inconclusive: 14.6 µM [cytotoxic, partial curve]",–
CSC1=C(C#N)C(C)C2=C(CC(C)(C)CC2=O)N1 (centres undefined),active: 23.1 µM,–
Cc1ccc(-c2noc(CN(C)C(=O)Nc3ccc(F)cc3)n2)cc1,"inconclusive: 29.1 µM [cytotoxic, single point]",–
CC1=NN(c2ccccc2)C(=O)C1C(=O)c1cc([N+](=O)[O-])cc([N+](=O)[O-])c1 (centres undefined),"inconclusive: 20.6 µM [cytotoxic, partial curve]",–
NC(=O)c1ccc(NC(=O)COC(=O)CCCOc2ccccc2)cc1,"inconclusive: 16.4 µM [rising, partial curve]",–
Cc1ccc(S(=O)(=O)NCC(=O)N(CC(=O)NCC2CCCO2)Cc2ccccc2Cl)cc1 (centres undefined),–,inactive: -12.5%
CCOc1cc(/C=N\NC(=O)c2ccc(NC(=O)CC)cc2)ccc1OC(=O)c1ccccc1,"inconclusive: 29.1 µM [cytotoxic, single point]",–
O=S(=O)(NC1CCCCC1Oc1ccccc1)c1ccc(Cl)cc1 (centres undefined),"inconclusive: 16.4 µM [cytotoxic, partial curve, poor fit]",–
COc1ccc(CCn2ccc(O)c(Cc3c(F)cccc3Cl)c2=O)cc1OC,"inconclusive: 29.1 µM [cytotoxic, single point]",–
CCC(=O)N1CCc2cc(CNC(=O)Nc3cc(OC)c(OC)c(OC)c3)ccc21,–,inactive: -1.83%
O=[N+]([O-])c1ccc2c(c1)C(O)n1nc(-c3ccc(Cl)cc3Cl)nc1S2 (centres undefined),–,inactive: -27.8%
O=C(CSc1ccc2ccccc2n1)N1CCC(c2noc3ccc(F)cc23)CC1,active: 9.2 µM,–
Cc1ccc(S(=O)(=O)N2C[C@H]3C(=O)C[C@@H](c4ccc(Cl)cc4)N(S(=O)(=O)c4ccc(C)cc4)[C@H]3C[C@H]2c2ccc(Cl)cc2)cc1,–,inactive: 14.4%
CCCCCCOc1ccc(C(=O)O)cc1C#N,–,inactive: -6.19%
O=CNc1cc(-c2cccc(F)c2)cn2c(-c3ccc(F)cc3)cnc12,"inconclusive: 29.1 µM [cytotoxic, single point]",–
COC(=O)C1=CN(c2ccc(F)cc2)C=C(C(=O)OC)C1c1cccc(Br)c1,"inconclusive: 23.1 µM [cytotoxic, single point]",–
COc1ccc(Cl)cc1NC(=O)Cn1c(=O)n(-c2ccc(C)cc2)c(=O)c2ccc(C(=O)NCc3ccccc3Cl)cc21,"inconclusive: 20.6 µM [rising, single point]",–

Compound,Potency,"activity change, negative = cytotoxicity"
O=C(NCCOc1ccccc1)c1ccccc1SCC(=O)N1CCCC1,–,inactive: -10.3%
O=C(Cc1ccc(NC(=O)N2CCCCc3ccccc32)cc1)NCc1cccc(Br)c1,–,inactive: 21.4%
COc1cc(OC)c(NC(=O)Cn2cccc2)cc1Cl,"inconclusive: 16.4 µM [cytotoxic, single point]",–
COc1ccc(C2C(C(C)=O)=C(O)C(=O)N2c2ccc(C)cc2)cc1 (centres undefined),"inconclusive: 32.6 µM [cytotoxic, single point]",–
COc1ccc2oc(=O)c(-c3cn4ccc(C)cc4n3)cc2c1,–,inactive: 1.84%
S=c1[nH]c(-c2ccccc2)cn1/N=C/c1ccncc1,"inconclusive: 29.1 µM [rising, single point]",–
CNC(=O)CSc1nnc(-c2ccco2)n1-c1ccccc1OC,"inconclusive: 32.6 µM [cytotoxic, partial curve, poor fit]",–
O=C(N/N=C/c1cc([N+](=O)[O-])ccc1O)c1ccc2c(c1)OCCO2,"inconclusive: 20.6 µM [cytotoxic, partial curve]",–
c1ccc(OCc2nnc(-c3ccccc3)o2)cc1,–,inactive: -1.01%
Cc1sc2ncnc(N3CCN(C(=O)c4ccco4)CC3)c2c1C,active: 18.4 µM,–
CCn1c(C(=O)Nc2ccccc2C(=O)OC)cc2sc(Cl)cc21,–,inactive: 0%
CC(=O)Nc1cc(-c2cccc(C(=O)N(C)C)c2)cn2c(-c3ccc(F)cc3)cnc12,–,inactive: 0%
Cc1ccc(-n2c(SCC(=O)N3Cc4ccccc4CC3C(=O)O)nnc2-c2cccnc2)c(C)c1 (centres undefined),"inconclusive: 11.6 µM [rising, partial curve, poor fit]",–
CC1CCc2c(sc3nc(SCC(=O)NCc4ccco4)nc(N)c23)C1 (centres undefined),active: 13 µM,–
CNC(=O)NC(=O)COC(=O)CCCSc1nc2ccccc2s1,–,inactive: 0%
C=CCNc1nc(C(=O)OCC(=O)Nc2c(Cl)cccc2C(F)(F)F)cs1,"inconclusive: 32.6 µM [cytotoxic, single point]",–
CCCCNC(=O)N(O)C1N(/N=C/c2ccco2)C(=S)SC1(C)C (centres undefined),"inconclusive: 29.1 µM [cytotoxic, single point]",–
Cc1ccc(NC(=O)Cn2c(=O)n(Cc3ccc(F)cc3)c(=O)c3cccnc32)cc1C,–,inactive: 16.2%
COc1ccc(CNC(=O)C(NC(C)=O)C(=O)Nc2ccc(OC)cc2)cc1 (centres undefined),"inconclusive: 10.3 µM [rising, partial curve]",–
O=C(Nc1ccc(S(=O)(=O)N(Cc2ccccc2)c2ccccc2)cc1)c1ccccc1F,–,inactive: -14.2%
O=c1c2cc(Br)ccc2[nH]c(=S)n1Cc1cccnc1,"inconclusive: 29.1 µM [cytotoxic, single point]",–
O=C(Cc1csc(N2CCOCC2)n1)N/N=C/c1ccc(O)c(O)c1O,–,inactive: -2.01%
Cc1cc(SCC#N)n2nc(C)c(-c3ccccc3)c2n1,"inconclusive: 3.26 µM [cytotoxic, full curve, poor fit]",–

# Single records (already shown). Order of values: Potency	activity change, negative = cytotoxicity
# `CCCCCCCCN1C(=O)[C@H](CC(=O)N2CCCCC2)C[C@@]2(C(=O)OC)CC(C)(C)CC=C12` as listed: inconclusive: 9.2 µM [cytotoxic, partial curve]	–
# `c1ccc(OCc2nnc(-c3ccccc3)o2)cc1` as listed: –	inactive: -1.01%
